At least one peptide structure holds a part that was inferred or is arguable (an end, a ring closure or a residue). Where a SMILES comes first, the peptide text is derived from it. The star is where a group is joined. X1 = COc1ccc2c3c1O[C@H]1C(O*)=CC[C@H]4[C@@H](C2)N(C)CC[C@]314
Assay: Chemical stability: hydrolysis in 5% NaHCO3
Assay type: physicochemical
Settings: 5% NaHCO3, one hour

For `CC[C@H](C)[C@H](NC(=O)[C@H](Cc1ccccc1)NC(=O)[C@H](Cc1ccccc1)NC(=O)[C@H](Cc1ccc(O)cc1)NC(=O)[C@@H](N)Cc1ccc(O)cc1)C(=O)OC1=CC[C@H]2[C@H]3Cc4ccc(OC)c5c4[C@@]2(CCN3C)[C@H]1O5` [YYFFI-HC, Tyr-Tyr-Phe-Phe-Ile-hydrocodone, reference compound] (H-YYFFI-X1), the “initial amount of conjugate hydrolyzed” value (ambient (~20° C.)) was 0% and the “initial amount of conjugate hydrolyzed” value (oil bath 100° C.) was 70%.
